{"source": "patent US10954549B2", "about": "“Detection and classification of an anticoagulant using a clotting assay” (Haemonetics Corporation, priority 2014, dated 2021)", "system": "blood from healthy volunteers", "test": "Thromboelastography R time of spiked blood in the presence of the FXa reagent", "type": "biochemical, human", "conditions": "100 ng/ml of drug in the blood component", "experimental": "Blood from healthy volunteers known not to be taking any oral anticoagulant and without any other significant health issues are analyzed using the FXa or the Ecarin reagent in a TEG® hemostasis analyzer. The FXa reagent (i.e., the Factor Xa reagent) is used to detect the presence (or absence) of an anticoagulant in the blood component being tested. In absence of any oral anticoagulant, the FXa reagent will accelerate the clotting process and result in a very short R-time. In presence of direct thrombin inhibitors and/or anti-Factor Xa anticoagulant(s), the process is slowed down and will cause elongation of the R-time. This difference in R-time is utilized to detect the presence of the oral anticoagulant. The R-time generated from multiple donors was used to construct a reference range. Blood was spiked with either direct thrombin inhibitors or anti-Xa(s) at different concentrations and analyzed using the FXa reagent or the Ecarin reagent. The drug concentrations chosen represent the published therapeutic ranges for these two classes of drugs. This assay was repeated in multiple donors to account for possible donor variations.", "note": "Some entries share one result that the patent states for a list of compounds."}
{"substance": "dabigatran", "values": [{"measurement": "R time raised above the reference range of approximately 1.8 minutes", "result": "at least 1.25 times"}]}
